PubChem BioAssay AID1508597, Cure First | 2020
This is an unselected part of the about 2,100 reagents, in one setting of the screen. 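Calls flag viability under 80% in either arm, not effects specific to rucaparib; the reference for percent is not stated.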 Unmarked entries are inactive. Some reagents were tested in more than one well and are listed for each. Not given: the 100% reference.

- Screen: 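Genes whose silencing sensitises or protects ovarian cancer cells against rucaparib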 (primary screen)
- Cell system: human ovarian carcinoma lines grown from tumours: OCI-P5x (papillary serous) and OCI-C5x (clear cell)
- Knock-down reagent: siRNA pool against human genes, 1.25 pmol siRNA per well
- Duration: 72 h or 96 h, depending on the cell culture
- Treatment: rucaparib 20 µM (about IC30) or vehicle, present until read-out
- Rucaparib or vehicle: Vehicle
- Cell line: OCI-P5x (serous)
- Detection: 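ATP luminescence measured at 72 or 96 h according to the culture, then normalised and expressed as percent viability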
- Reading the numbers: viability, normalised: higher = more viable cells remaining
- Call rule: 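a well counts as a hit if its normalised viability is under 80 percent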
- Calls: active = viability under 80%; inactive = viability 80% or more

TANK (TRAF family member associated NFKB activator), technical replicate 1
- viability, normalised (%): 76.1 (active)

TANK (TRAF family member associated NFKB activator), technical replicate 2
- viability, normalised (%): 67.1 (active)

TANK (TRAF family member associated NFKB activator), technical replicate 3
- viability, normalised (%): 79.9 (active)

FANCD2 (FA complementation group D2), technical replicate 1
- viability, normalised (%): 82.3

FANCD2 (FA complementation group D2), technical replicate 1
- viability, normalised (%): 70.4 (active)

FANCD2 (FA complementation group D2), technical replicate 2
- viability, normalised (%): 75.9 (active)

FANCD2 (FA complementation group D2), technical replicate 2
- viability, normalised (%): 54.9 (active)

FANCD2 (FA complementation group D2), technical replicate 3
- viability, normalised (%): 67.6 (active)

FANCD2 (FA complementation group D2), technical replicate 3
- viability, normalised (%): 69.1 (active)

TSPYL5 (TSPY like 5), technical replicate 1
- viability, normalised (%): 68.8 (active)

TSPYL5 (TSPY like 5), technical replicate 2
- viability, normalised (%): 90.5

TSPYL5 (TSPY like 5), technical replicate 3
- viability, normalised (%): 98.7

CERKL (CERK like autophagy regulator), technical replicate 1
- viability, normalised (%): 67.5 (active)

CERKL (CERK like autophagy regulator), technical replicate 2
- viability, normalised (%): 66.9 (active)

CERKL (CERK like autophagy regulator), technical replicate 3
- viability, normalised (%): 54.2 (active)

NEK2 (NIMA related kinase 2), technical replicate 1
- viability, normalised (%): 81.8

NEK2 (NIMA related kinase 2), technical replicate 1
- viability, normalised (%): 86.3

NEK2 (NIMA related kinase 2), technical replicate 2
- viability, normalised (%): 76.8 (active)

NEK2 (NIMA related kinase 2), technical replicate 2
- viability, normalised (%): 95.2

NEK2 (NIMA related kinase 2), technical replicate 3
- viability, normalised (%): 105

NEK2 (NIMA related kinase 2), technical replicate 3
- viability, normalised (%): 87.4

CHRAC1 (chromatin accessibility complex subunit 1), technical replicate 1
- viability, normalised (%): 81.9

CHRAC1 (chromatin accessibility complex subunit 1), technical replicate 2
- viability, normalised (%): 85.9

CHRAC1 (chromatin accessibility complex subunit 1), technical replicate 3
- viability, normalised (%): 95.6

RPA4 (replication protein A4), technical replicate 1
- viability, normalised (%): 62.6 (active)

RPA4 (replication protein A4), technical replicate 2
- viability, normalised (%): 66.1 (active)

RPA4 (replication protein A4), technical replicate 3
- viability, normalised (%): 67.8 (active)

MARK2 (microtubule affinity regulating kinase 2), technical replicate 1
- viability, normalised (%): 68 (active)

MARK2 (microtubule affinity regulating kinase 2), technical replicate 2
- viability, normalised (%): 63.4 (active)

MARK2 (microtubule affinity regulating kinase 2), technical replicate 3
- viability, normalised (%): 80.7

MARK4 (microtubule affinity regulating kinase 4), technical replicate 1
- viability, normalised (%): 65.1 (active)

MARK4 (microtubule affinity regulating kinase 4), technical replicate 2
- viability, normalised (%): 73.3 (active)

MARK4 (microtubule affinity regulating kinase 4), technical replicate 3
- viability, normalised (%): 68.7 (active)

In a second layout: 3 of the entries above.
{"gene symbol":"RPA4 (replication protein A4)","technical replicate":"1","viability, normalised (%)":"62.6 (active)"}
{"gene symbol":"RPA4 (replication protein A4)","technical replicate":"2","viability, normalised (%)":"66.1 (active)"}
{"gene symbol":"RPA4 (replication protein A4)","technical replicate":"3","viability, normalised (%)":"67.8 (active)"}
